Positions count from the first letter of the chain named. Names and notes keep the numbering of the source. Results are given in words; binding and its absence hold for the method and conditions named. In cells and extracts the contact can be indirect. Some results given as binding are weak or reduced against the parent protein; the word gives no strength. For part of these data: Where a sequence is shown, tags or fusion partners need not be part of it.

Test [1] concerns the target T1, His-tagged PTTG1 (human) (UniProt O95997).
T1 sequence: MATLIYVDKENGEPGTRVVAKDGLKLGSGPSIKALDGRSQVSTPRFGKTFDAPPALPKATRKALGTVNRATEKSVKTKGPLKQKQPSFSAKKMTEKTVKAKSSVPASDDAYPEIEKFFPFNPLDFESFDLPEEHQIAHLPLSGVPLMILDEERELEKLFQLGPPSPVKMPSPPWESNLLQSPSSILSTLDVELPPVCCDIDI
Kind of test: His-tag pull-down, His PTTG1 as bait, Aurora Kinase A as prey.

The target of test [2] is T2, Aurora Kinase A (human) (UniProt O14965).
T2 sequence (biotin-lysine labeled during synthesis when used as prey in the pull-down, looked up): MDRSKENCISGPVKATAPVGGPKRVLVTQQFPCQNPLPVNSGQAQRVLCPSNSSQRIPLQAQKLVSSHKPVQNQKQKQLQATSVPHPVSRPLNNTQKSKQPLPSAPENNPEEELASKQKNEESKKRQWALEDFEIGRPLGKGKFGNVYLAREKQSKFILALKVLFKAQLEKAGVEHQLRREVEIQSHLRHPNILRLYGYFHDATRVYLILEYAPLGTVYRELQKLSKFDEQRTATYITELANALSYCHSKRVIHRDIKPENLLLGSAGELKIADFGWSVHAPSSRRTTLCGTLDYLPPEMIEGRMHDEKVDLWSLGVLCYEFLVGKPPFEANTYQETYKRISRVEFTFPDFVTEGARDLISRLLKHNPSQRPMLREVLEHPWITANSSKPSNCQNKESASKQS
Kind of test: His-tag pull-down.

Test [3] addresses T2, Aurora Kinase A (human). Kind of test: co-immunoprecipitation from transfected HCT116 PTTG1-/- cells.

B1: Aurora Kinase A (enzyme, human, UniProt O14965 1-403, looked up)
chain: T2 sequence (biotin-lysine labeled during synthesis when used as prey in the pull-down, looked up)
modifications: biotin-lysine labeled during synthesis when used as prey in the pull-down
For B1, the binding result in test [1] is listed as “binds”.

B2: His-tagged PTTG1 (protein, not shown: small tags and cut ends)
chain: T1 sequence
B2: the binding result in test [2] is on record as “binds”.

B3: PTTG1 S181A mutation (M9) (protein)
chain: T1 sequence with S181A
On to B3, for which the binding entry in test [3] was “binds”.

The values above are taken from patent US20110009473A1 (CEDARS SINAI MEDICAL CENTER, published 2011).
